{
  "source": "PubChem BioAssay AID540276",
  "about": "(National Center for Advancing Translational Sciences (NCATS), 2011)",
  "note": "Several values for one entry are separate records, joined by “and”; a condition that tells them apart may be missing. Equal values may be shown once. Out of some 300,000 compounds screened, about 5,400 (1.8%) were called active. Inconclusive results, whose numbers are uncertain, are shown with a selection of clear calls. Calls follow the shape of the full dose curve; tested in HEK293 cells. A potency beside an inconclusive call is a rough fit, not a confirmed value. Potency is read from the fitted curve at half-maximal effect.",
  "data": [
    {"experiment": "qHTS for inhibitors of binding or entry into cells for Marburg Virus", "details": "Marburg virus pseudotyped entry inhibition, cell reporter; series mostly up to 37.8 µM", "values": [
      {"smiles": "CCN(CC)CCN(Cc1cc2cc3c(cc2[nH]c1=O)OCCO3)C(=S)NCCCOC", "Potency": "inactive"},
      {"smiles": "CCC1CSC(Nc2ccc(C(=O)/C=C/c3ccc(OC)c(OC)c3)cc2)=N1", "note": "(stereo not drawn)", "Potency": "inconclusive: 29.1 µM [inhibitor, single point]"},
      {"smiles": "O=C(Nc1ccc2c(c1)OCO2)C1CCCN1C(=O)Nc1ccccc1", "note": "(stereo not drawn)", "Potency": "inactive"},
      {"smiles": "CCOc1ccc2nc(SCCNS(=O)(=O)c3ccccc3)sc2c1", "Potency": "inconclusive: 11.2 µM [inhibitor, single point]"},
      {"smiles": "OC1(C(F)(F)F)CC(c2ccc3ccccc3c2)=NO1", "note": "(stereo not drawn)", "Potency": "inconclusive: 0.794 µM [inhibitor, single point]"},
      {"smiles": "Cc1ccc(C(=O)c2oc3ccccc3c2NC(=O)Cc2coc3cc(C)ccc23)cc1", "Potency": "inconclusive: 6.31 µM [inhibitor, single point]"},
      {"smiles": "Oc1c(N=Nc2ccc(F)cc2)ccc2ccccc12", "Potency": "inconclusive: 1.78 µM [activator, partial curve, poor fit]"},
      {"smiles": "CCOC(=O)C1=C(COC(=O)CCOc2ccc(C)cc2)NC(=O)NC1C", "note": "(stereo not drawn)", "Potency": "inconclusive: 12.6 µM [inhibitor, partial curve, poor fit]"},
      {"smiles": "O=C(NNC(=S)Nc1cccc(C(F)(F)F)c1)c1ccccc1Cl", "Potency": "inconclusive: 25.1 µM [activator, partial curve, poor fit]"},
      {"smiles": "O=C(O)C1CC(O)CN1S(=O)(=O)c1cccs1", "note": "(stereo not drawn)", "Potency": "inconclusive: 0.794 µM [activator, single point]"},
      {"smiles": "CC1(C)O[C@@H](C(O)(c2cc(C(F)(F)F)cc(C(F)(F)F)c2)c2cc(C(F)(F)F)cc(C(F)(F)F)c2)[C@H](C(O)(c2cc(C(F)(F)F)cc(C(F)(F)F)c2)c2cc(C(F)(F)F)cc(C(F)(F)F)c2)O1", "Potency": "inactive"},
      {"smiles": "CCOc1cccc(=O)c2c(C)n(C)c(C)c12", "Potency": "inactive"},
      {"smiles": "Clc1ccc(CNc2ccccc2NCc2ccc(Cl)nc2)cn1", "Potency": "inconclusive: 22.4 µM [inhibitor, single point]"},
      {"smiles": "CC(C)(C)c1ccc(S(=O)(=O)N(CCCN2CCOCC2)Cc2cccs2)cc1", "Potency": "inconclusive: 29.1 µM [inhibitor, single point] and inconclusive: 11.2 µM [inhibitor, single point]"},
      {"smiles": "O=C(CSc1nc2ccccc2o1)Nc1nc2ccc(Br)cc2s1", "Potency": "inconclusive: 0.447 µM [activator, full curve]"},
      {"smiles": "COc1ccccc1-c1nc(C#N)c(NCCCn2ccnc2)o1", "Potency": "inactive"},
      {"smiles": "COc1ccccc1CC1(C)NC(=O)N(CC(=O)N2CCc3ccccc3C2)C1=O", "note": "(stereo not drawn)", "Potency": "inconclusive: 14.6 µM [activator, partial curve]"},
      {"smiles": "C=CCn1cccc(C(=O)Nc2ccc(OC)cc2OC)c1=O", "Potency": "inconclusive: 12.6 µM [activator, partial curve]"},
      {"smiles": "Cc1cc(NC(=O)C(C)Oc2ccc(Cl)cc2Cl)n(-c2ccccc2)n1", "note": "(stereo not drawn)", "Potency": "inconclusive: 6.51 µM [inhibitor, full curve, poor fit]"},
      {"smiles": "Brc1ccc2cccnc2c1", "Potency": "inconclusive: 25.1 µM [inhibitor, partial curve, poor fit]"},
      {"smiles": "Cc1ccc(-n2nc3c(c2NC(=O)c2cccs2)CSC3)cc1", "Potency": "inactive"},
      {"smiles": "Cc1ccccc1-c1nc(CS(=O)CC(=O)N2CCN(c3cc(Cl)ccc3C)CC2)c(C)o1", "note": "(stereo not drawn)", "Potency": "inactive"},
      {"smiles": "COc1cccc(NC(=O)CC(=O)c2ccccc2)c1", "Potency": "inconclusive: 14.1 µM [inhibitor, single point]"},
      {"smiles": "CC(C)(C)NCc1cc(Br)ccc1OCc1cccs1", "Potency": "inconclusive: 35.5 µM [inhibitor, single point]"},
      {"smiles": "Cc1nc2c(=O)[nH]c(=S)[nH]c2[nH]c1=O", "Potency": "inconclusive: 22.4 µM [inhibitor, single point]"},
      {"smiles": "COc1ccccc1OCCn1c(NC(=O)c2ccc(Cl)cc2)nc2ccccc21", "Potency": "inconclusive: 3.16 µM [activator, single point]"},
      {"smiles": "O=C(N/N=C/c1ccc2c(c1)OCO2)C(O)c1ccccc1", "note": "(stereo not drawn)", "Potency": "inconclusive: 18.4 µM [activator, partial curve, poor fit]"},
      {"smiles": "Cc1ccccc1OCC(=O)N/N=C/c1cccc(Oc2ccc([N+](=O)[O-])cc2[N+](=O)[O-])c1", "Potency": "inconclusive: 10 µM [inhibitor, partial curve]"},
      {"smiles": "C=CCN1C(=O)NC(=O)/C(=C/c2ccc(N(C)C)c(Br)c2)C1=O", "Potency": "inactive"},
      {"smiles": "CN(C)c1ccc(C(c2ccc(N(C)C)cc2)c2ccc([N+](=O)[O-])cc2)cc1", "Potency": "inconclusive: 8.91 µM [inhibitor, partial curve, poor fit]"},
      {"smiles": "C#CCCCO/N=C1/C[C@@H](O)[C@@H](O)[C@@H]2[C@@H]3C(=O)N(Cc4ccc5c(c4)OCO5)C(=O)[C@H]3CC[C@H]12", "Potency": "inconclusive: 2.99 µM [inhibitor, single point]"},
      {"smiles": "O=C(c1ccc(Cl)cc1)C1CCCN(C2CCSCC2)C1", "note": "(stereo not drawn)", "Potency": "inconclusive: 7.08 µM [inhibitor, partial curve, poor fit]"},
      {"smiles": "CCOc1ccc2nc(NC(=O)CS(=O)(=O)c3ccccc3)sc2c1", "Potency": "inactive"},
      {"smiles": "CC(=O)c1c(CC(=O)O)[nH]n(-c2nc3ccccc3s2)c1=O", "Potency": "inactive"},
      {"smiles": "Cc1ccc(C(=O)NCCCN2CCOCC2)c(Cl)c1", "Potency": "inconclusive: 10 µM [activator, partial curve, poor fit]"},
      {"smiles": "COc1ccc(NC(=O)/C=C/c2cc(OC)c(OC)c(OC)c2)cn1", "Potency": "inconclusive: 11.2 µM [activator, partial curve, poor fit]"},
      {"smiles": "CCCN1C(=O)c2[nH]nc(-c3ccccc3O)c2C1c1ccc(OCc2ccccc2)c(OCC)c1", "note": "(stereo not drawn)", "Potency": "inconclusive: 12.6 µM [inhibitor, partial curve, poor fit]"},
      {"smiles": "O=C(NC1CCCCC1)C(c1ccccn1)N(C(=O)Cc1cccs1)c1ccc(Cl)cc1", "note": "(stereo not drawn)", "Potency": "active: 10.3 µM"},
      {"smiles": "CC(C)CSc1nnc(-c2ccccc2)c(-c2ccccc2)n1", "Potency": "inactive"},
      {"smiles": "COc1cc(C(=O)Nc2ccc3c(c2)OCCO3)ccc1OC(C)C", "Potency": "inactive"},
      {"smiles": "CC(Cc1ccccc1)NC(=O)c1cc2ccccc2o1", "note": "(stereo not drawn)", "Potency": "inconclusive: 2.51 µM [activator, full curve, poor fit]"},
      {"smiles": "COc1ccc(NC(=S)N2CCN(CCN=CC3=C(O)CC(c4ccccc4)CC3=O)CC2)cc1", "note": "(stereo not drawn)", "Potency": "inconclusive: 35.5 µM [activator, single point]"},
      {"smiles": "CCOC(=O)c1ccc(-n2ccnc2)c(NC(=O)c2ccc(Cl)cc2)c1", "Potency": "inactive"},
      {"smiles": "Fc1ccc(Nc2nc3ccccc3c3nncn23)c(Cl)c1", "Potency": "inactive"},
      {"smiles": "CCOc1ccccc1N1CCN(C(=O)c2cc3c(s2)CCC3)CC1", "Potency": "inconclusive: 35.5 µM [inhibitor, single point]"},
      {"smiles": "COc1ccccc1OCCn1c(=S)[nH]c2ccccc21", "Potency": "inactive"},
      {"smiles": "COc1ccc(S(=O)(=O)N(C)C)cc1NC(=O)Cc1c[nH]c2ccccc12", "Potency": "inactive"},
      {"smiles": "CCN(CC(=O)Nc1ccc(OC)cc1)C(=O)c1ccc(Cl)c(S(=O)(=O)N2CCCC2)c1", "Potency": "inactive"},
      {"smiles": "Cc1ccccc1-c1nnn(CC(=O)N2CCN(C(=O)c3ccco3)CC2)n1", "Potency": "inconclusive: 35.5 µM [activator, partial curve, poor fit]"},
      {"smiles": "Cc1cccc(NC(=O)N2CCCc3ccccc32)c1C", "Potency": "inconclusive: 15.8 µM [activator, partial curve, poor fit]"},
      {"smiles": "Cc1csc(NC(=O)c2cc3c(s2)CCCCC3)n1", "Potency": "inconclusive: 1.58 µM [inhibitor, full curve, poor fit]"},
      {"smiles": "Cn1nc(C(F)(F)F)c2cc(C(=O)Nc3ccc(F)c(Cl)c3)sc21", "Potency": "inconclusive: 11.2 µM [inhibitor, partial curve, poor fit]"},
      {"smiles": "c1n[nH]c(NCc2ccc3c(c2)OCO3)n1", "Potency": "inconclusive: 0.517 µM [inhibitor, full curve]"},
      {"smiles": "COc1ccc2c(CN(C)c3ccccc3)cc(=O)oc2c1", "Potency": "inconclusive: 3.16 µM [inhibitor, partial curve]"},
      {"smiles": "CCCCCOP(=O)(c1ccccc1)c1ccccc1", "Potency": "inactive"},
      {"smiles": "CNC(=O)c1ccc(OCc2ccccc2)c(OC)c1", "Potency": "inconclusive: 5.62 µM [activator, partial curve, poor fit]"},
      {"smiles": "COc1ccccc1N1CCN(C(=O)C(OC(C)=O)c2ccccc2)CC1", "note": "(stereo not drawn)", "Potency": "inconclusive: 16.4 µM [inhibitor, partial curve, poor fit]"},
      {"smiles": "COc1ccc(C(CNC(=O)c2sccc2C)N2CCOCC2)cc1", "note": "(stereo not drawn)", "Potency": "inactive"},
      {"smiles": "CN1CCCN(Cc2ccccc2Br)CC1", "Potency": "inconclusive: 0.891 µM [inhibitor, full curve, poor fit]"},
      {"smiles": "CCN(CC)CCCN1C(=O)C(=O)/C(=C(/O)c2ccc(Cl)cc2)C1c1ccccn1", "note": "(stereo not drawn)", "Potency": "inactive"},
      {"smiles": "COc1ccccc1NC(=O)c1cccc(NC(=O)c2ccco2)c1", "Potency": "inconclusive: 0.631 µM [activator, full curve, poor fit]"},
      {"smiles": "CC1(C)CC(=O)C2=C(C1)NC1=C(C(=O)c3ccccc31)C2c1ccccc1", "note": "(stereo not drawn)", "Potency": "inconclusive: 6.51 µM [inhibitor, partial curve]"},
      {"smiles": "CCN(CC(=O)Nc1cc(S(=O)(=O)N2CCOCC2)ccc1C)Cc1ccccc1", "Potency": "inconclusive: 5.62 µM [inhibitor, single point]"},
      {"smiles": "CC(C)(C)c1cc([N+](=O)[O-])cc(C(C)(C)C)c1O", "Potency": "active: 6.51 µM"},
      {"smiles": "O=C(N/N=C/c1ccc(O)cc1)c1cccc(C(F)(F)F)c1", "Potency": "inconclusive: 0.794 µM [activator, single point]"},
      {"smiles": "CCOc1ccccc1NC(=O)COC(=O)c1ccc(S(=O)(=O)N2CCCC2)cc1", "Potency": "inconclusive: 1.78 µM [activator, partial curve, poor fit]"},
      {"smiles": "O=C(COC(=O)c1ccco1)Nc1cccc(Br)c1", "Potency": "inactive"},
      {"smiles": "CCCN1C(=O)/C(=C/c2nc3ccccc3c(=O)[nH]2)c2ccccc21", "Potency": "inconclusive: 0.316 µM [inhibitor, partial curve, poor fit]"}
    ]}
  ]
}
